Laboratory results: PMC11024108
These are yes or no findings as the source states them, for the method shown. Binding seen in cells or lysates may run through a third protein. Some results given as binding are weak or reduced against the parent protein; the word gives no strength.

Columns and labels:
[1] = molecular target: T1, CYB5R3 (human (endogenous in HEK293T)) (UniProt P00387); assay: cross-linking; intact high purity mitochondria from HEK293T cells, 1 mg/ml in Buffer M, two aliquots of 0.5 mM DSSO, each 20 min at room temperature; cross-linked lysine pairs identified by LC-MS (XlinkX), 2% FDR at the level of unique cross-linked residue pairs; three biological replicates
T1 sequence: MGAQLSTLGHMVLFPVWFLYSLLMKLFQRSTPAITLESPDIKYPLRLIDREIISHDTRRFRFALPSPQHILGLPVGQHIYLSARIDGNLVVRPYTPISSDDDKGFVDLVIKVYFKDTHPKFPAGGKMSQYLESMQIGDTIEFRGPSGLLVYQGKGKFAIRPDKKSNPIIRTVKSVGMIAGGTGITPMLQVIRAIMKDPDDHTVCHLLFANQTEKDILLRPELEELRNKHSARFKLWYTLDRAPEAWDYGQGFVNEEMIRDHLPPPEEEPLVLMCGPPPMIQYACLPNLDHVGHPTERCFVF

[2] = molecular target: T2, VDAC2 (human (endogenous in HEK293T)) (UniProt P45880); assay: as above
T2 sequence: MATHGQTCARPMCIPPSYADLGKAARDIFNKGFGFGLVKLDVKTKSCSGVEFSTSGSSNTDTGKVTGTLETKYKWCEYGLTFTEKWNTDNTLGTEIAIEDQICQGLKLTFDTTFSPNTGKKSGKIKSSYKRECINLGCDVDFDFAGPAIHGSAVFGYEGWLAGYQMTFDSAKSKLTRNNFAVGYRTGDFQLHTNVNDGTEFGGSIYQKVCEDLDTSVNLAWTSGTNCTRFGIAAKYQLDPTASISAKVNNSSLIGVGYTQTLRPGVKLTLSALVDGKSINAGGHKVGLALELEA

B1: FAF2 (protein, UniProt Q96CS3 1-445)
chain: MAAPEERDLTQEQTEKLLQFQDLTGIESMDQCRHTLEQHNWNIEAAVQDRLNEQEGVPSVFNPPPSRPLQVNTADHRIYSYVVSRPQPRGLLGWGYYLIMLPFRFTYYTILDIFRFALRFIRPDPRSRVTDPVGDIVSFMHSFEEKYGRAHPVFYQGTYSQALNDAKRELRFLLVYLHGDDHQDSDEFCRNTLCAPEVISLINTRMLFWACSTNKPEGYRVSQALRENTYPFLAMIMLKDRRMTVVGRLEGLIQPDDLINQLTFIMDANQTYLVSERLEREERNQTQVLRQQQDEAYLASLRADQEKERKKREERERKRRKEEEVQQQKLAEERRRQNLQEEKERKLECLPPEPSPDDPESVKIIFKLPNDSRVERRFHFSQSLTVIHDFLFSLKESPEKFQIEANFPRRVLPCIPSEEWPNPPTLQEAGLSHTEVLFVQDLTDE
For B1, the binding [1] was “binds” and the binding [2] was “binds”.
